# Measurements from PubChem BioAssay AID2685 (National Center for Advancing Translational Sciences (NCATS), 2010).
# The other results are listed elsewhere or left out. Shown are side measurements of this screen, not its main read-out; they come without a call. Most of these compounds were active or inconclusive in the main read-out, so they are no random draw. Potencies come from curve fits of mixed quality, noted in brackets.
# Assay: qHTS Assay for Lipid Storage Modulators in Drosophila S3 Cells;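 as to cell number change: cells counted by Cell Tracker Red CMTPX staining in the red channel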
# Conditions: BODIPY lipid droplet fluorescence, 18-24 h; for cell number change: measured here: cell count max response, cells fed with added oleic acid
# Method in brief: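 Drosophila S3 cells got compounds at several concentrations plus oleic acid (400 uM solution). Laser-scanning cytometry with 488 nm excitation read lipid droplets at 500-530 nm and cells at 575-640 nm. Percent activity was relative to 20 uM Triacsin C.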
# [1] = measured here: lipid fluorescence (Fed channel) AC50, cells fed with added oleic acid
# [2] = measured here: cell number channel AC50, cells fed with added oleic acid
Structure (SMILES),cell number change [%],AC50 [1],AC50 [2]
Cc1cnn(-c2ccc3nnc(-c4ccc(Cl)cc4)n3n2)c1,-13.5,–,–
CCn1nnc2cc(C(=O)Nc3cccc(S(=O)(=O)N(C)C)c3)ccc21,12.3,"32.6 µM [falling, single point]",–
COC(=O)c1ccccc1NC(=O)C1CCCN(S(=O)(=O)c2ccc(OC)cc2)C1 (stereo unspecified),4.67,–,–
CCOc1c(Cl)cc(CNc2nnnn2C)cc1OC,1.84,"18.4 µM [rising, single point]",–
CC(=O)N(C)c1ccc(NS(=O)(=O)c2cc(Cl)ccc2Cl)cc1,-27.4,"2.06 µM [falling, full curve, poor fit]","2.31 µM [falling, full curve, poor fit]"
CCOC(=O)c1c(NC(=O)c2nn(CC)cc2Br)c(C#N)nn1-c1ccccc1,–,–,"1.3 µM [rising, partial curve]"
O=C(CSc1nnc(COc2ccccc2)o1)NCCc1ccccc1,20.4,–,"0.00411 µM [rising, full curve, poor fit]"
Cc1ccc(CNC(=O)/C(C#N)=C\c2ccc(N(C)C)cc2)cc1,-36.5,–,"29.1 µM [falling, single point]"
CC(=O)N1CCN(CC(=O)NC(=O)Nc2ccc3c(c2)OCCO3)CC1,-9.72,"0.82 µM [rising, full curve, poor fit]",–
CCOC(=O)c1cnc2c(N=Nc3ccccc3)c(N)nn2c1N,–,"0.411 µM [falling, partial curve, poor fit]",–
CC(C)CCn1c(SCC(=O)c2ccccc2)nc2c1c(=O)[nH]c(=O)n2C,10.4,–,–
Cc1ccc(-c2noc(CNC(=O)c3ccc4c(c3)OCO4)n2)cc1,25.6,–,–
CN1CCN(C(=O)NC2CCCN2S(=O)(=O)c2ccc(Cl)cc2)CC1 (stereo unspecified),-20.5,–,–
N/C(=N\OC(=O)CCCOc1ccccc1)c1ccc([N+](=O)[O-])cc1,-26.6,"1.84 µM [falling, partial curve, poor fit]",–
COc1ccc(CC(=O)n2[nH]c(=O)cc(C)c2=O)cc1OC,-59.5,"29.1 µM [falling, single point]","29.1 µM [falling, single point]"
O=C(CNC(=S)N(Cc1ccccc1Cl)C1CCCC1)NCCCN1CCOCC1,-19.6,–,–
CC(=O)Nc1ccc(NC(=O)CCNS(=O)(=O)c2cccc3nsnc23)cc1,5.87,"6.51 µM [falling, single point]","0.731 µM [falling, full curve]"
O=C1CC(SC(=Nc2ccccc2)Nc2ccccc2)C(=O)N1c1ccc(Cl)c(Cl)c1 (stereo unspecified),10.2,"20.6 µM [rising, partial curve, poor fit]",–
CCCn1c(C(C)Nc2nc(-c3ccc(C)cc3)cs2)nc2cc(Cl)c(Cl)cc21 (stereo unspecified),17.8,"29.1 µM [rising, single point]",–
Cc1cc(C)n(CCOC(=O)c2sc3ccccc3c2Cl)n1,-48.2,"0.00461 µM [falling, full curve, poor fit]","0.00517 µM [falling, full curve, poor fit]"
O=C(CCNC(=O)N1CC(=O)Nc2ccccc21)NCc1cccc(Cl)c1,–,"6.51 µM [falling, single point]",–

# A second format for some results above.
Structure (SMILES)	cell number change [%]	AC50 [1]	AC50 [2]
O=C(CSc1nnc(COc2ccccc2)o1)NCCc1ccccc1	20.4	–	0.00411 µM [rising, full curve, poor fit]
Cc1ccc(CNC(=O)/C(C#N)=C\c2ccc(N(C)C)cc2)cc1	-36.5	–	29.1 µM [falling, single point]
CC(=O)N1CCN(CC(=O)NC(=O)Nc2ccc3c(c2)OCCO3)CC1	-9.72	0.82 µM [rising, full curve, poor fit]	–
CCOC(=O)c1cnc2c(N=Nc3ccccc3)c(N)nn2c1N	–	0.411 µM [falling, partial curve, poor fit]	–

# Further results.

Structure (SMILES),cell number change [%],AC50 [1],AC50 [2]
COc1cc(/C=C2/C(=O)ON=C2C)cc(Cl)c1O,-5.41,"29.1 µM [falling, single point]",–
O=C(O)c1ccccc1-c1csc(-c2ccccc2)n1,-88.2,–,–
O=C(O)C(NS(=O)(=O)c1cccc2nsnc12)c1ccccc1 (stereo unspecified),-19.2,–,"0.92 µM [falling, full curve, poor fit]"
CCOc1ccc(-c2nc(CSCC(=O)N3CCN(c4cccc(OC)c4)CC3)c(C)o2)cc1,-46.1,"29.1 µM [falling, single point]","16.4 µM [falling, single point]"
O=C(CNC(=O)C1CCCCC1)OC(C(=O)c1ccccc1)c1ccccc1 (stereo unspecified),-0.582,"0.116 µM [falling, single point]","0.651 µM [falling, partial curve, poor fit]"
S=C(NCCc1ccc(Cl)cc1)NC1CCCCC1,3.52,–,–
COc1ccccc1N1CCN(Cc2cc(=O)c(OCC(=O)Nc3ccccc3)co2)CC1,–,–,"0.13 µM [rising, full curve, poor fit]"
Cc1cc(C)c(NC(=O)CNC(=O)COC(=O)CN2C(=O)NC3(CCCC3)C2=O)c(C)c1,–,–,"5.8 µM [rising, partial curve]"
CCNC(=O)C1CC(=O)N(Cc2ccc3c(c2)OCO3)C(=Nc2ccc(OCC)cc2)S1 (stereo unspecified),–,"0.58 µM [rising, single point]","0.58 µM [rising, single point]"
CN(C(=O)c1c(Br)cnn1C)C12CC3CC(CC(C3)C1)C2,-39.3,"0.231 µM [falling, full curve, poor fit]","0.461 µM [falling, full curve, poor fit]"
Cc1c(C(=O)NCCc2ccc(Cl)cc2)sc2nc3n(c(=O)c12)CCC3,-71,–,–
COCCCn1c(=S)[nH]c2ncccc2c1=O,-12.7,–,"0.00461 µM [falling, full curve, poor fit]"
CN(c1ccccc1)S(=O)(=O)c1ccc(C(=O)NCCc2ccc(F)cc2)cc1,29.1,–,–
C[C@@H](OC(=O)N(C)Cc1ccccc1)[C@H]1O[C@]2(C)CCCC[C@H]1O2,-22.1,"0.00517 µM [falling, full curve, poor fit]",–
CCOc1ccc2c(c1)C(c1ccc(C)o1)=NNC(c1ccncc1)=N2,89.5,–,–
CC(Sc1nnc(N)s1)C(=O)Nc1ccc2c(c1)OCO2 (stereo unspecified),27.7,–,–
CCCCCCn1c(=O)c(F)cn(Cc2ccc(OC)c([N+](=O)[O-])c2)c1=O,–,"0.103 µM [rising, full curve, poor fit]",–
Cc1nc2c(-c3ccccc3)c(C)nn2c(C)c1CCC(=O)N1CCOCC1,–,"3.66 µM [rising, single point]",–
Cc1ccccc1C(=O)Nc1ccnn1C1CCN(C2CCSCC2)CC1,21.4,"13 µM [rising, partial curve, poor fit]",–
O=C(/C=C/c1ccc(Br)cc1)c1ccco1,-23.5,"32.6 µM [falling, partial curve]",–
Cc1ccc[n+](CC(=O)Nc2cccc([N+](=O)[O-])c2)c1,-49,"20.6 µM [falling, partial curve]","20.6 µM [falling, single point]"

Structure (SMILES),cell number change [%],AC50 [1],AC50 [2]
CC(=O)Nc1oc(-c2cccc3ccccc23)nc1C#N,6.94,–,"5.17 µM [falling, single point]"
Cc1cc(NS(=O)(=O)c2ccc(NC(=S)NC(=O)/C=C/c3ccccc3)cc2)no1,-14.5,"3.98 µM [falling, full curve, poor fit]",–
Cc1c(C(=O)NCc2ccccc2F)oc2ccccc12,7.57,"16.4 µM [falling, single point]",–
CCCCn1nnnc1SCC(=O)N(CC)CC,-7.8,"0.291 µM [falling, full curve, poor fit]",–
C=CCN1C(=O)CS/C1=C(\C#N)S(=O)(=O)c1ccc(C)cc1,-94.9,"29.1 µM [falling, single point]","32.6 µM [falling, single point]"
COc1ccccc1NC(=O)c1cccc(S(=O)(=O)N2CCN(Cc3ccccc3)CC2)c1,11.1,"0.461 µM [rising, full curve, poor fit]",–
COc1cc(OC)c(-c2nnc(-c3ccc(OC)c(OC)c3OC)o2)cc1OC,–,"0.517 µM [rising, full curve]","0.517 µM [rising, full curve]"
CCOC(=O)c1cc(C#N)c(N2CCN(c3ccccn3)CC2)nc1-c1ccccc1,–,–,"0.082 µM [rising, full curve, poor fit]"
O=C(c1cc(-c2ccccc2)n[nH]1)N1CCc2c([nH]c3ccccc23)C1c1ccccn1 (stereo unspecified),-26.4,–,–
Cc1ccc2nc(NC(=O)C3CCCN3C(=O)OC(C)(C)C)sc2c1 (stereo unspecified),7.17,"0.259 µM [rising, full curve, poor fit]",–
O=C1C=C(N2CCN(C3=CC(=O)CCC3)CC2)CCC1,-5.21,"3.66 µM [falling, partial curve]",–
O=C(O)CCN1C(=O)c2ccc(Oc3ccc([N+](=O)[O-])cc3)cc2C1=O,38.2,–,"29.1 µM [rising, single point]"
Cc1ccc(-c2nc3ncccc3o2)cc1NC(=O)C(C)(C)C,-4.97,"0.58 µM [falling, single point]",–
CCC1Oc2ccc(C)cc2N(CC(=O)N2CCCC2)C1=O (stereo unspecified),18.4,"23.1 µM [rising, single point]",–
O=C(O)c1ccc(NC(=O)c2ccccc2Br)c(NC(=O)c2ccccc2Br)c1,-13,"11.6 µM [rising, partial curve]",–
Cc1nc(N2CCN(c3ccccn3)CC2)c2c(C)c(C(=O)Nc3ccc(F)cc3Cl)sc2n1,10.5,–,"4.11 µM [falling, single point]"
O=C(Nc1cc(C(F)(F)F)ccc1Cl)C(NCc1ccccc1)c1ccccc1 (stereo unspecified),8.11,–,–
COc1ccccc1Nc1nc(C2(C)CCC(=O)O2)cs1 (stereo unspecified),100,"16.4 µM [rising, partial curve]","16.4 µM [rising, partial curve]"
CCCC(C(=O)NC(C)(C)C)N(Cc1ccccc1Cl)C(=O)c1snc(C(N)=O)c1N (stereo unspecified),-40.4,"29.1 µM [falling, single point]","25.9 µM [falling, single point]"
